Experimental data taken from PubChem BioAssay AID540303 (National Center for Advancing Translational Sciences (NCATS), 2011).
Screen size: about 330,000 compounds; about 1,000 (0.3%) were called active. Inconclusive results, whose numbers are uncertain, are shown with a selection of clear calls. Calls come from the whole dose curve; as a rule, active = well fitted inhibition curve with a large enough effect; inconclusive = small, poorly fitted or top-dose-only effect; inactive = no such curve, though single readings can be large or run the other way; tested in mouse RAW 264.7 cells. Potencies of inconclusive entries are doubtful fits and often do not repeat.
Potency is the fitted concentration of half-maximal effect.

Assay: qHTS for Inhibitors of Cell Surface uPA Generation; note: nearly all actives have a fitted effect of over 55% in size
Settings: cell surface uPA generation assay; series mostly up to 38.3 µM
How it was run: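 RAW 264.7 cells (4000/well) were plated overnight at 37 C and then given compounds in a 1:5 series (up to 38.3 uM final) plus reagent for 24 h. Intracellular ATP was measured by ATP-Lite luminescence and stays elevated when uPA-dependent LF entry is blocked.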
In the case of `COc1cc2c(C(=O)NCc3ccccn3)cn(CC(C)C)c(=O)c2cc1OC`, the Potency is reported as inconclusive: 5.01 µM [inhibitor, single point].
For `NNC(=O)c1sc2cc(C(F)(F)F)cnc2c1-c1cccnc1`, the Potency was “inactive”.
With `Cn1cccc1/C=C1\SC(=O)N(c2ccc(O)cc2)C1=O` the Potency was “inactive”.
With `O=C1N[C@@H](c2ccccc2)COC(=O)[C@@H](Cc2ccc(F)cc2)C/C=C\C[C@@H]1CC(=O)N(CCO)Cc1ccccc1` the Potency was inconclusive: 10 µM [inhibitor, single point].
With `COc1ccc(-c2cc([C@H]3[C@@H]4C=CCC[C@@]4(C)C(=O)N3Cc3ccccc3)ccc2F)cc1OC` the Potency was inconclusive: 8.91 µM [inhibitor, single point].
With `CC1CCCN(c2ccc3nc4ccccc4c(=O)n3n2)C1` (centres undefined) the Potency was inconclusive: 10 µM [inhibitor, partial curve, poor fit].
For `COc1ccc(-c2csc(NC(C)c3nc4cc(Cl)c(Cl)cc4n3CCCO)n2)cc1` (centres undefined), the Potency was inconclusive: 12.6 µM [inhibitor, single point].
For `O=C(CN1C(=O)NC2(CCCCCC2)C1=O)Nc1ccc(Cl)cc1Cl`, the Potency was inconclusive: 28.2 µM [inhibitor, single point].
With `O=C(C1=NNCC1c1ccccc1)C1CO1` (centres undefined) the Potency was inconclusive: 1.58 µM [inhibitor, partial curve, poor fit].
With `Cc1onc(C(=O)Nc2cccc(C(F)(F)F)c2)c1[N+](=O)[O-]` the Potency was inconclusive: 28.2 µM [inhibitor, single point].
For `O=C(OCCN1CCCCC1)c1ccc(Cl)cc1`, the Potency was “inactive”.
With `COc1ccc(-c2nc(NC(=O)c3nc4nccc(C)n4n3)sc2C)cc1` the Potency was inconclusive: 35.5 µM [inhibitor, partial curve, poor fit].
In the case of `Cc1cc(C)cc(OCC(=O)N2CCc3ccccc3C2)c1`, the Potency is reported as inconclusive: 7.94 µM [inhibitor, single point].
With `CN(C(=O)c1cccc(NC(=O)Cc2ccc(NC(=O)C3CCCN(C(=O)CCc4ccccc4)C3)cc2)c1)C1CCCCC1` (centres undefined) the Potency was inconclusive: 20 µM [inhibitor, single point].
For `Cc1cccc(CNc2ncnc3ccc(-c4ccc5c(c4)OCCO5)cc23)c1`, the Potency was inconclusive: 12.6 µM [inhibitor, single point].
With `Cc1onc(-c2c(Cl)cccc2Cl)c1C(=O)N1CCCc2ccccc21` the Potency was inconclusive: 12.6 µM [inhibitor, partial curve, poor fit].
In the case of `COC(=O)c1cc(O)cc(OC)c1Oc1cc(C)cc(O)c1C(=O)O`, the Potency is reported as active: 0.891 µM.
With `CCOC(=O)C1CCCN(C(=O)CN2C(=O)/C(=C/c3ccc(OC)cc3)Oc3ccccc32)C1` (centres undefined) the Potency was “inactive”.
With `Cn1ccnc1SCC(=O)Nc1ccc2c(c1)OCO2` the Potency was inconclusive: 0.0089 µM [inhibitor, partial curve, poor fit].
For `COc1ccc(C(=O)c2sc(Nc3ccccc3)nc2N)cc1OC`, the Potency was “inactive”.
With `NS(=O)(=O)c1cccc(NC(=O)COC(=O)c2cc(-c3ccc(Cl)cc3)nc3ccccc23)c1` the Potency was inconclusive: 8.91 µM [inhibitor, single point].
With `Cc1ccc(NC(=O)CC2SCCNC2=O)cc1[N+](=O)[O-]` (centres undefined) the Potency was “inactive”.
In the case of `O=C(Nc1nc(-c2ccccn2)cs1)c1cccc(S(=O)(=O)N2CCOCC2)c1`, the Potency is reported as active: 10 µM.
With `Cc1ccc(C)c(N2CCN(C(=O)c3csc4ccccc34)CC2)c1` the Potency was “inactive”.
With `O=C(c1cn(-c2ccccc2)nc1-c1ccccc1)N1CCN(c2ccccn2)CC1` the Potency was inconclusive: 25.1 µM [inhibitor, single point].
With `N#CCCNc1c(Cl)cc(Cl)cc1C(=O)O` the Potency was “inactive”.
In the case of `CCN1CCN(c2ccc(S(=O)(=O)N3CCCCC3)cc2NC(=O)COc2ccc(F)cc2Cl)CC1`, the Potency is reported as “inactive”.
For `O=C(NCc1cccnc1)c1ccc(COc2ccc(Cl)cc2Cl)o1`, the Potency was “inactive”.
For `CCCN1CCc2c(sc(NC(=O)CCS(=O)(=O)c3ccccc3)c2C(N)=O)C1`, the Potency was inconclusive: 1.12 µM [inhibitor, partial curve, poor fit].
In the case of `O=C(Nc1nc2c(Cl)cccc2s1)C1CC1`, the Potency is reported as “inactive”.
With `COC(C/C=C/C(=O)COCc1ccccc1)OC` the Potency was active: 7.08 µM.
With `Nc1c(Cl)cc(C2=NCCn3c2c2ccc([N+](=O)[O-])cc2[n+]3[O-])cc1Cl` the Potency was active: 3.98 µM.
For `CC(C)[C@H](NC(=O)C1CC(=O)N(c2ccc(F)cc2)C1)C(=O)N1CCCCC1` (some centres undefined), the Potency was “inactive”.
For `CCc1ccc(OCCNc2cc(N3CCNC(C)C3)ccc2[N+](=O)[O-])cc1` (centres undefined), the Potency was inconclusive: 14.1 µM [inhibitor, single point].
In the case of `COc1ccc(C(=O)c2c(C)c3ccccc3n2CC(O)CNC(C)C)cc1` (centres undefined), the Potency is reported as inconclusive: 28.2 µM [inhibitor, single point].
For `Nc1nc2sc3c(c2cc1C(=O)NCC(=O)O)CCCC3`, the Potency was inconclusive: 4.47 µM [inhibitor, partial curve].
For `N#Cc1ccc(CN2CCN(C(=O)c3ccc(S(=O)(=O)NCc4ccco4)cc3)CC2)cc1`, the Potency was inconclusive: 12.6 µM [inhibitor, partial curve, poor fit].
For `CN(C(=O)CSc1nc2ccccc2c(=O)n1-c1ccc(F)cc1)C1CCS(=O)(=O)C1` (centres undefined), the Potency was inconclusive: 0.447 µM [inhibitor, full curve, poor fit].
For `COc1ccc(Cc2nnc(NC(=O)Nc3ccccc3F)s2)cc1OC`, the Potency was inconclusive: 22.4 µM [inhibitor, partial curve, poor fit].
With `CCOC(=O)C1Nc2ccccc2C2C(O)C(O)CC12` (centres undefined) the Potency was inconclusive: 7.94 µM [inhibitor, single point].
In the case of `O=C(O)Cn1cc(C(=S)N2CCCCC2)c2ccccc21`, the Potency is reported as inconclusive: 1 µM [inhibitor, full curve].
With `CCC(=O)Nc1ccc(NC(=O)c2ccco2)c(OC)c1` the Potency was “inactive”.
With `CCOC(=O)Cn1c(=O)c(-c2ccccc2NC)nc2ccccc21` the Potency was “inactive”.
For `COc1ccccc1NC(=O)c1[nH]c(C)c(C(C)=O)c1C`, the Potency was “inactive”.
With `Cc1ccc(NC(=O)C(=Cc2ccc(C(=O)O)cc2)C(=O)Nc2ccc(C)cc2C)c(C)c1` the Potency was inconclusive: 3.16 µM [inhibitor, single point].
In the case of `CCOc1cccc2sc(N(CCCN(C)C)C(=O)c3ccc(S(=O)(=O)N(C)c4ccccc4)cc3)nc12`, the Potency is reported as inconclusive: 5.62 µM [inhibitor, partial curve, poor fit].
For `COC(=O)CNC(=O)C1CCN(S(=O)(=O)c2cccc3nsnc23)CC1`, the Potency was inconclusive: 12.6 µM [inhibitor, single point].
In the case of `NC(=O)CC(NC(=O)Cc1ccc(Br)cc1)c1ccc(NC2CCCC2)c([N+](=O)[O-])c1` (centres undefined), the Potency is reported as inconclusive: 1.12 µM [inhibitor, single point].
With `Oc1ccc(/C=N/n2c(-c3ccco3)csc2=Nc2cccnc2)c(O)c1` the Potency was “inactive”.
For `O=C1C2C3C=CC(CC3)C2C(=O)N1c1ccc(F)cc1` (centres undefined), the Potency was “inactive”.
For `Cc1[nH]c2ccccc2c1/C=N/NC(=O)c1cc(-c2ccncc2)nc2ccccc12`, the Potency was inconclusive: 10 µM [inhibitor, partial curve].
In the case of `O=[N+]([O-])c1ccc(Cl)c(/C=N/n2c(COc3ccccc3)n[nH]c2=S)c1`, the Potency is reported as inconclusive: 1 µM [inhibitor, full curve, poor fit].
With `CCc1nc(C)cn1S(=O)(=O)c1ccc(Br)cc1` the Potency was inconclusive: 0.501 µM [inhibitor, full curve, poor fit].
For `CCOc1ccc(CN(C)CC(=O)Nc2ccccc2C(=O)NC2CC2)cc1`, the Potency was “inactive”.
For `CCN1CCN(c2ccc(S(=O)(=O)N3CCCCC3)cc2NC(=O)c2ccc(OC(F)F)cc2)CC1`, the Potency was inconclusive: 25.1 µM [inhibitor, partial curve, poor fit].
In the case of `CCn1c(N2CCN(C(c3ccccc3)c3ccccc3)CC2)nc2c1c(=O)[nH]c(=O)n2C`, the Potency is reported as “inactive”.
With `O=C(CCN1C(=O)/C(=C/c2ccccc2Cl)SC1=S)NC1C=CS(=O)(=O)C1` (centres undefined) the Potency was active: 7.94 µM.
For `O=C(Nc1nccs1)c1ccc(-c2ccc(F)c(Cl)c2)o1`, the Potency was inconclusive: 3.55 µM [inhibitor, partial curve, poor fit].
For `Cn1cc(Cl)c(C(=O)Nc2nc3ccccc3s2)n1`, the Potency was inconclusive: 5.01 µM [inhibitor, partial curve, poor fit].
In the case of `CC1(c2nnc(-c3cccc(Cl)c3)o2)CC(c2ccc(F)cc2)=NO1` (centres undefined), the Potency is reported as inconclusive: 11.2 µM [inhibitor, single point].
In the case of `Cc1ccc(Cl)cc1NC(=S)N(Cc1cccnc1)Cc1ccccc1Cl`, the Potency is reported as “inactive”.
In the case of `CCN(C(=O)c1ccc(Cl)c([N+](=O)[O-])c1)c1ccccc1`, the Potency is reported as “inactive”.
For `C[C@@H](NCCCn1cnc2c(OCc3ccccc3)ncnc21)c1cccc2ccccc12`, the Potency was “inactive”.
For `CC1CCN(S(=O)(=O)c2ccc3c(c2)CC(C)N3C(=O)C2CCC2)CC1` (centres undefined), the Potency was inconclusive: 12.6 µM [inhibitor, single point].
In the case of `CCOc1cc(CNC2CCCC2)cc(Cl)c1OCc1ccc(F)cc1`, the Potency is reported as “inactive”.
For `COC(=O)c1ccc(/C=N/NS(=O)(=O)c2cc(C)ccc2C)cc1`, the Potency was inconclusive: 11.2 µM [inhibitor, single point].
With `COc1ccc(NC(=O)O/N=C/c2c(C)nn(C(C)(C)C)c2C)cc1` the Potency was active: 2 µM.
With `O=C(NCCN1C(=O)S/C(=C\c2ccc(Cl)cc2Cl)C1=O)C1=COCCO1` the Potency was inconclusive: 12.6 µM [inhibitor, single point].
In the case of `O=C(/C=C/c1ccco1)NC(=S)Nc1ccccc1Br`, the Potency is reported as inconclusive: 3.16 µM [inhibitor, partial curve, poor fit].
